According to the supplement of paper PMC10849652:
The list shows a part of the results.

Protein sequences, listed by entry. Tags and fused reporters are not part of them. Lines headed by an entry give the natural chain unless they say otherwise; changes in a name come on top.
UniProt Q13643: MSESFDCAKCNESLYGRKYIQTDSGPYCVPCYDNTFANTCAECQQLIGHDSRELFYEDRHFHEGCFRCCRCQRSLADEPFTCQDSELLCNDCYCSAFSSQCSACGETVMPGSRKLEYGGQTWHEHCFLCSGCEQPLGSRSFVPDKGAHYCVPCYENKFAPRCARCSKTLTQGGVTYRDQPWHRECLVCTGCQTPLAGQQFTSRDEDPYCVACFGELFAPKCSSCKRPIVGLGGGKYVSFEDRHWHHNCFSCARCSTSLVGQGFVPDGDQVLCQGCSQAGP
UniProt Q13045: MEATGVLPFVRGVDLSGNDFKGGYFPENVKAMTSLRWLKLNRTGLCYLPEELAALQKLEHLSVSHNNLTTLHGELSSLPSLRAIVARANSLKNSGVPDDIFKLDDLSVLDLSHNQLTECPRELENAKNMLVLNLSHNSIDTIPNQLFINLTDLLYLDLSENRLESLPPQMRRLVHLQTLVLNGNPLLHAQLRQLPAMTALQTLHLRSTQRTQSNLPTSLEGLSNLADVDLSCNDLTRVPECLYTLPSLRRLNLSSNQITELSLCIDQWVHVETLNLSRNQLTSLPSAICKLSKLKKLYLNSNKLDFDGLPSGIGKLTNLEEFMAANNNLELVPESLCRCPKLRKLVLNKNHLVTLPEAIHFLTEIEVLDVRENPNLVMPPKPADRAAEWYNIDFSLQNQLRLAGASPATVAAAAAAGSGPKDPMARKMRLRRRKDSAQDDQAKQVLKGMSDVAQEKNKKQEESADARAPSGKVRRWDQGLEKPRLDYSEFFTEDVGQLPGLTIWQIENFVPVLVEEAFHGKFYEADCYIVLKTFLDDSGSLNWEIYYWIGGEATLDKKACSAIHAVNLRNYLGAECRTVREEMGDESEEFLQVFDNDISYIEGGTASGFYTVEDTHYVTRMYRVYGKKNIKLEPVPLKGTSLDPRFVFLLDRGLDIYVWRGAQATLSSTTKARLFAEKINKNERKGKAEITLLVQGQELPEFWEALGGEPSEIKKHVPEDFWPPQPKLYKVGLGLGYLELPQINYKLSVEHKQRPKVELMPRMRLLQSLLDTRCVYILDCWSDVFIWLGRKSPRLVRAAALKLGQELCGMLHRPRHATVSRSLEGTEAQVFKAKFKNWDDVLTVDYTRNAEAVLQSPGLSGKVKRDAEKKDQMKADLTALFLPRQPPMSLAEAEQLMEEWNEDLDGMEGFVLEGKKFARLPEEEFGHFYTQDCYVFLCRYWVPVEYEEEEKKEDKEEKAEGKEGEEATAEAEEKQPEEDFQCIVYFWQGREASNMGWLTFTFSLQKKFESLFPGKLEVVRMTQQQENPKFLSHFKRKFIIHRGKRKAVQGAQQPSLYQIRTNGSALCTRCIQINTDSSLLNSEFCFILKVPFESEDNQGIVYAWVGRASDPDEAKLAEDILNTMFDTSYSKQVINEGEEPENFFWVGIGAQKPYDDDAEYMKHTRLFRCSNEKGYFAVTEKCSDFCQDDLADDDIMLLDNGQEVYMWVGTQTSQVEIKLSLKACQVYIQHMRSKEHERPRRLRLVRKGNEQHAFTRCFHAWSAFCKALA
UniProt Q8NFF5: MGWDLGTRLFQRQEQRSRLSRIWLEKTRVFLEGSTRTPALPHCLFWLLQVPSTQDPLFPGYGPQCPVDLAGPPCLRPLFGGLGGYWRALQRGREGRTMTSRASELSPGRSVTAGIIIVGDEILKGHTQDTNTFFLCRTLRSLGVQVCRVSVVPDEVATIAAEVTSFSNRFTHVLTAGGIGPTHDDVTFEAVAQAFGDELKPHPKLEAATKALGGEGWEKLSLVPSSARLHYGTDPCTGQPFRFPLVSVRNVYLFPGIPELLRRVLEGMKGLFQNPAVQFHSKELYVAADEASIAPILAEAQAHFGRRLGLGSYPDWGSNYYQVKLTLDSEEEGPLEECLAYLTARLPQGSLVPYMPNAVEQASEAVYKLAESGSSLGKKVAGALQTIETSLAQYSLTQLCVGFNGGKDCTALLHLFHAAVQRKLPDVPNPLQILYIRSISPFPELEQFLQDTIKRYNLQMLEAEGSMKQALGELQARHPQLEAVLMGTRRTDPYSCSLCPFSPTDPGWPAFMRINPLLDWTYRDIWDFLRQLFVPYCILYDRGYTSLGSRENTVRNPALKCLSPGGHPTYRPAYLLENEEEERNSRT
UniProt Q92913: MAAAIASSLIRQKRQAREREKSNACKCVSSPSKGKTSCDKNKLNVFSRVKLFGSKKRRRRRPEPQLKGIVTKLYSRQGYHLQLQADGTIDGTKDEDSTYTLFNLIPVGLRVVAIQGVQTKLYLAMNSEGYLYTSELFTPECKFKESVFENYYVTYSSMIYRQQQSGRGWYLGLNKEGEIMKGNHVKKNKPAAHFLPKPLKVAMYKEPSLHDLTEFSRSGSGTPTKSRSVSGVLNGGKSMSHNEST
UniProt Q96HJ9: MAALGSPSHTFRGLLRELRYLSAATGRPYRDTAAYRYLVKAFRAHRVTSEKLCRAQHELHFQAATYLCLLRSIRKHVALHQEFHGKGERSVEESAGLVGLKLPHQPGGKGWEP
UniProt Q5HYJ3: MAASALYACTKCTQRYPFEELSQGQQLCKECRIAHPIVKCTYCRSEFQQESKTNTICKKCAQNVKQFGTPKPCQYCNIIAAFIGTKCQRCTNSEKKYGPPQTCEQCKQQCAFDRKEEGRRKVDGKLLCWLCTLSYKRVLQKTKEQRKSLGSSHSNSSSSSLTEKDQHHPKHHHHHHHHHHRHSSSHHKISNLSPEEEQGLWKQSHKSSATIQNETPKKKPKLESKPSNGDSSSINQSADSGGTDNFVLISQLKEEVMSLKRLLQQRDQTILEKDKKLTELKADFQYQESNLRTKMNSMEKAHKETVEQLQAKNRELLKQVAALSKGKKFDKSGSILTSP
UniProt P49327, whole entry, looked up: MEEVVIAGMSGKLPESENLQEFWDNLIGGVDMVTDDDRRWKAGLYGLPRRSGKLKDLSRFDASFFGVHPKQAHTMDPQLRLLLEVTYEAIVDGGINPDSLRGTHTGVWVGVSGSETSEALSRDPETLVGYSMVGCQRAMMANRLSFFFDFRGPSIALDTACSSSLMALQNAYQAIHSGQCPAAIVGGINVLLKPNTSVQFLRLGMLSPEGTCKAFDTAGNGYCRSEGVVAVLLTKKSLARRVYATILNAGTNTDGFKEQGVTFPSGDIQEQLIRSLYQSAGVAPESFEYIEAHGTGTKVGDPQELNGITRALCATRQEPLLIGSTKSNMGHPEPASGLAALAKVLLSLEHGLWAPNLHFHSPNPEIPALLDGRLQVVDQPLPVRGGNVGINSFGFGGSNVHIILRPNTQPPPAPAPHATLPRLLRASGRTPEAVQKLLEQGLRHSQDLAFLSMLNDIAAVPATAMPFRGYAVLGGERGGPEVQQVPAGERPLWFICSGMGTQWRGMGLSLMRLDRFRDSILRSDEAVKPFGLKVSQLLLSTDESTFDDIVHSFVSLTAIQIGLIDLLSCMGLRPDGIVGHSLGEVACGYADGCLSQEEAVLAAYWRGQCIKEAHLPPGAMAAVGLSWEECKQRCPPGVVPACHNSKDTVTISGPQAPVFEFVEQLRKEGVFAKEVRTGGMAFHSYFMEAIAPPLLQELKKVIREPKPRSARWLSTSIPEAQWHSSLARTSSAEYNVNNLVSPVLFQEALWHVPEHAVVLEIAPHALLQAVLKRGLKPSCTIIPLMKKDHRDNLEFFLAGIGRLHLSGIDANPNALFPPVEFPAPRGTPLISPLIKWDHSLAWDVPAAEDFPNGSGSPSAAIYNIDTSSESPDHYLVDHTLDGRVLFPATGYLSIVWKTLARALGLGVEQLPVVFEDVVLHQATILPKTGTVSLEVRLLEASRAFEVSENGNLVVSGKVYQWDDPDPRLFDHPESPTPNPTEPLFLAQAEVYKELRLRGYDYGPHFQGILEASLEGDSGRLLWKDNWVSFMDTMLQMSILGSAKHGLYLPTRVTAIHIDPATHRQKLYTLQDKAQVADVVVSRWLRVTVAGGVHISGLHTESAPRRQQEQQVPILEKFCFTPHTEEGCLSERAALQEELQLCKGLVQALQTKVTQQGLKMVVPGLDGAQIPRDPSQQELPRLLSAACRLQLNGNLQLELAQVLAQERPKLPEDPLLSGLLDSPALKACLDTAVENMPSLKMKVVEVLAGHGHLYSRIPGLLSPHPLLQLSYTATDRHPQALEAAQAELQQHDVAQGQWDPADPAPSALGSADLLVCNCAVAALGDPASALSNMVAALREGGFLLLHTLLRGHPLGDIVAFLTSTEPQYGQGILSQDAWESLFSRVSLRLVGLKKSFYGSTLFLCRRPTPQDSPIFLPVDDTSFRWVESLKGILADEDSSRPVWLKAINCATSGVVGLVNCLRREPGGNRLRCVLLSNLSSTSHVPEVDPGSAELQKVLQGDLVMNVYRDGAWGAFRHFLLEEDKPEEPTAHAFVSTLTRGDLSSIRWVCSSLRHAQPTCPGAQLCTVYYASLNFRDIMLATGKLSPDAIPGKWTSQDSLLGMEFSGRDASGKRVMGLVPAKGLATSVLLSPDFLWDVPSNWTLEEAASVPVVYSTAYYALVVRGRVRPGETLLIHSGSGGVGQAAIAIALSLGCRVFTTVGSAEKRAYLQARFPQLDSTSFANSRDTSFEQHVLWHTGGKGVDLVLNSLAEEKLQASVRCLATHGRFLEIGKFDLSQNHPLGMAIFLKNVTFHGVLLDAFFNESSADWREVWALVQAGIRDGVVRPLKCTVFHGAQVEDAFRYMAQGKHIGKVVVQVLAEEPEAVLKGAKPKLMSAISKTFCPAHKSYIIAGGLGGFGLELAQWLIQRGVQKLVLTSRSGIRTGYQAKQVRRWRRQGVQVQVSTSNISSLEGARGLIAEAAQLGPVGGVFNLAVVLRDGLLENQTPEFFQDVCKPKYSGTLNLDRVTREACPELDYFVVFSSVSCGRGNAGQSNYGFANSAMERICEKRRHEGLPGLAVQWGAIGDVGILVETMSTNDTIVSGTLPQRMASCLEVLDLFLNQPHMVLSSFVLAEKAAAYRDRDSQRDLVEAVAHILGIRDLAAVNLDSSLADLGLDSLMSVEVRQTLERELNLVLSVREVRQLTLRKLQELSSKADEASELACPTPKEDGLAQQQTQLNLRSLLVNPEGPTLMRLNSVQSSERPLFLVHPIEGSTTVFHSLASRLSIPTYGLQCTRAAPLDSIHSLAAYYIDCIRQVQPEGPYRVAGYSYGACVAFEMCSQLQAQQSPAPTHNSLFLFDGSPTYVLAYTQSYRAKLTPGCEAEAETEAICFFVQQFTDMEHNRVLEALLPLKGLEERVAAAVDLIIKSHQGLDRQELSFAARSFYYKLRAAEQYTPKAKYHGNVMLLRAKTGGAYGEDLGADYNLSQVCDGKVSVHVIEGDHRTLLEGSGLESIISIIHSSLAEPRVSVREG
UniProt Q8NB91: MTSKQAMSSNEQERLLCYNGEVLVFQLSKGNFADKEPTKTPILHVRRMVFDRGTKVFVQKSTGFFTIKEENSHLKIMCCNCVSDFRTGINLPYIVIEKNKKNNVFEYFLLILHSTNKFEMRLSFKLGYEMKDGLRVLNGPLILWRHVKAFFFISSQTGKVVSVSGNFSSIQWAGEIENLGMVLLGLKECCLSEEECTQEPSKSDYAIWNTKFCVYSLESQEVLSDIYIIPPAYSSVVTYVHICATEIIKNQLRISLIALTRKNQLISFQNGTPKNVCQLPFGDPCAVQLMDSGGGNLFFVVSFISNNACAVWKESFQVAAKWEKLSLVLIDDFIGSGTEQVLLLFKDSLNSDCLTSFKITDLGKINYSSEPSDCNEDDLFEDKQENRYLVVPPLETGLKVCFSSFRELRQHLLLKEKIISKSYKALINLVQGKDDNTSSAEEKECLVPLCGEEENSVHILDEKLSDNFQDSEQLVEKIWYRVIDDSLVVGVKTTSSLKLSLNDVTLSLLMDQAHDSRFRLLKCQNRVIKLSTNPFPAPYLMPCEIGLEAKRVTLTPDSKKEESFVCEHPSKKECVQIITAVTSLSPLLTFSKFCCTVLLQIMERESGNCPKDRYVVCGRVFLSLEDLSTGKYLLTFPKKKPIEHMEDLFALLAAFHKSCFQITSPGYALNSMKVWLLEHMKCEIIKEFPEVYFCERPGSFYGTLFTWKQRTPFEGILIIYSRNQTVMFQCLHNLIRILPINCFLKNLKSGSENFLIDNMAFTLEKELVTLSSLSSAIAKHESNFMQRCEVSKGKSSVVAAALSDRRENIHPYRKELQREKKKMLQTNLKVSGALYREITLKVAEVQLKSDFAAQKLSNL
UniProt Q8IW50: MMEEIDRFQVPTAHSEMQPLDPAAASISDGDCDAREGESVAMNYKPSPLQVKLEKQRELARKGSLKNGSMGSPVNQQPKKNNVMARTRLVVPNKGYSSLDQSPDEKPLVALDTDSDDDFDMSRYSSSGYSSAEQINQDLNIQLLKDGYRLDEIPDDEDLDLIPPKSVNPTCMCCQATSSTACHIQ

Experiments:
Assay in all cases: log2 fold change, soluble protein after heating vs DMSO (PISA); higher = thermal stabilisation; K562 cells, 10 uM, 30 min; active = over 0.2 and 3.5 SD of the protein, either way, in both replicates (recomputed)
[1] = compound: COC1=CC=C(C=C1)CN2C=CC3=C2C=C(C=C3)C(=O)NO
Outline: (§1)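 Values are thermal stability changes relative to control samples and are taken from duplicates. They are stated as log2 fold changes. Before quantification by TMTpro 16plex LC-MS/MS with equalised channel sums, K562 cells at 2×10^6 cells/mL were treated with 10 μM compound for 30 min, heated in aliquots for 3 min across 48°C-58°C, pooled, extracted in PBS with 0.5% NP-40 at 4°C, and centrifuged at 21,000xg for 90 min to give the soluble supernatant.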

filanesib = compound: CON(C)C(=O)N1N=C(c2cc(F)ccc2F)S[C@@]1(CCCN)c1ccccc1 [filanesib]
Outline: as §1

zotarolimus = compound: CO[C@H]1C[C@@H]2CC[C@@H](C)[C@@](O)(O2)C(=O)C(=O)N2CCCC[C@H]2C(=O)O[C@H]([C@H](C)C[C@@H]2CC[C@H](n3cnnn3)[C@H](OC)C2)CC(=O)[C@H](C)/C=C(\C)[C@@H](O)[C@@H](OC)C(=O)[C@H](C)C[C@H](C)/C=C/C=C/C=C/1C [zotarolimus]
Outline: as §1

idasanutlin = compound: COc1cc(C(=O)O)ccc1NC(=O)[C@@H]1N[C@@H](CC(C)(C)C)[C@](C#N)(c2ccc(Cl)cc2F)[C@H]1c1cccc(Cl)c1F [idasanutlin]
Outline: as §1

alisertib = compound: COc1cc(Nc2ncc3c(n2)-c2ccc(Cl)cc2C(c2c(F)cccc2OC)=NC3)ccc1C(=O)O [alisertib]
Outline: as §1

[2] = compound: COc1cc2nc(-c3cc(F)ccc3O)nc(N[C@@H]3CNC[C@H]3C(C)(C)O)c2cc1OC
Outline: as §1

gefitinib = compound: COc1cc2ncnc(Nc3ccc(F)c(Cl)c3)c2cc1OCCCN1CCOCC1 [gefitinib]
Outline: as §1

[3] = compound: COc1cccc2cc(-c3nc([C@H]4CC[C@H](C(=O)O)CC4)n4ncnc(N)c34)[nH]c12
Outline: as §1

lapatinib = compound: CS(=O)(=O)CCNCc1ccc(-c2ccc3ncnc(Nc4ccc(OCc5cccc(F)c5)c(Cl)c4)c3c2)o1 [lapatinib]
Outline: as §1

pictilisib = compound: CS(=O)(=O)N1CCN(Cc2cc3nc(-c4cccc5[nH]ncc45)nc(N4CCOCC4)c3s2)CC1 [pictilisib]
Outline: as §1

Measured: log2 fold change

FLNC (UniProt Q14315)
inactive: [1] -0.019 | filanesib 0.001 | zotarolimus 0.021 | idasanutlin -0.044 | alisertib -0.036 | [2] 0.029 | gefitinib -0.004 | [3] -0.031 | lapatinib -0.008 | pictilisib -0.007

FKBPL (UniProt Q9UIM3)
inactive: [1] -0.019 | filanesib -0.05 | zotarolimus 0.001 | idasanutlin 0.028 | alisertib -0.04 | [2] 0.015 | gefitinib 0.05 | [3] 0.003 | lapatinib 0.029 | pictilisib 0.026

FKBP4 (UniProt Q02790)
inactive: [1] 0.015 | filanesib -0.066 | zotarolimus 0.077 | idasanutlin -0.048 | alisertib -0.018 | [2] 0.031 | gefitinib 0.008 | [3] 0.009 | lapatinib -0.062 | pictilisib 0.027

FAM3C (UniProt Q92520)
inactive: [1] 0.008 | filanesib -0.057 | zotarolimus 0.018 | idasanutlin 0.006 | alisertib -0.01 | [2] -0.062 | gefitinib 0.096 | [3] 0.036 | lapatinib -0.017 | pictilisib 0.001

FCHO1 (UniProt O14526)
inactive: [1] 0.061 | filanesib 0.055 | zotarolimus 0.068 | idasanutlin 0.072 | alisertib -0.055 | [2] 0.256 | gefitinib 0.046 | [3] 0.022 | lapatinib -0.105

FHL3 (UniProt Q13643)
inactive: [1] -0.032 | filanesib 0.039 | zotarolimus -0.058 | idasanutlin 0.001 | alisertib -0.067 | [2] 0.005 | gefitinib -0.02 | [3] -0.002 | lapatinib -0.027 | pictilisib 0.003

FAM234A (UniProt Q9H0X4)
inactive: [1] -0.104 | filanesib 0.002 | zotarolimus -0.015 | idasanutlin 0.015 | alisertib 0.211 | [2] 0.223 | gefitinib -0.008 | [3] -0.014 | lapatinib -0.078

FAM3A (UniProt P98173)
inactive: [1] -0.057 | filanesib -0.022 | zotarolimus 0.005 | idasanutlin 0.007 | alisertib 0.044 | [2] -0.021 | gefitinib 0.04 | [3] 0.066 | lapatinib 0.067 | pictilisib 0.055

FLII (UniProt Q13045)
inactive: [1] 0.016 | filanesib 0 | zotarolimus 0.013 | idasanutlin -0.01 | alisertib 0.002 | [2] 0.034 | gefitinib 0.005 | [3] -0.007 | lapatinib 0.009 | pictilisib 0.048

FLNB isoform 8 (UniProt O75369)
inactive: [1] 0.009 | filanesib 0.007 | zotarolimus 0.036 | idasanutlin -0.022 | alisertib 0.016 | [2] 0.045 | gefitinib 0.002 | [3] -0.012 | lapatinib -0.023 | pictilisib 0.062

FAR1 (UniProt Q8WVX9)
inactive: [1] 0.012 | filanesib 0.009 | zotarolimus 0.025 | idasanutlin -0.113 | alisertib -0.081 | [2] -0.095 | gefitinib 0.016 | [3] 0.017 | lapatinib 0.029 | pictilisib -0.025

FBXO30 (UniProt Q8TB52)
inactive: [1] -0.04 | filanesib -0.064 | zotarolimus -0.039 | idasanutlin -0.01 | alisertib 0.017 | [2] -0.015 | gefitinib -0.035 | [3] 0.007 | lapatinib 0.011 | pictilisib -0.082

Reprinted from the listing (five entries):
FHL3 (UniProt Q13643)
inactive: [1] -0.032 | filanesib 0.039 | zotarolimus -0.058 | idasanutlin 0.001 | alisertib -0.067 | [2] 0.005 | gefitinib -0.02 | [3] -0.002 | lapatinib -0.027 | pictilisib 0.003

FAM234A (UniProt Q9H0X4)
inactive: [1] -0.104 | filanesib 0.002 | zotarolimus -0.015 | idasanutlin 0.015 | alisertib 0.211 | [2] 0.223 | gefitinib -0.008 | [3] -0.014 | lapatinib -0.078

FAM3A (UniProt P98173)
inactive: [1] -0.057 | filanesib -0.022 | zotarolimus 0.005 | idasanutlin 0.007 | alisertib 0.044 | [2] -0.021 | gefitinib 0.04 | [3] 0.066 | lapatinib 0.067 | pictilisib 0.055

FLII (UniProt Q13045)
inactive: [1] 0.016 | filanesib 0 | zotarolimus 0.013 | idasanutlin -0.01 | alisertib 0.002 | [2] 0.034 | gefitinib 0.005 | [3] -0.007 | lapatinib 0.009 | pictilisib 0.048

FLNB isoform 8 (UniProt O75369)
inactive: [1] 0.009 | filanesib 0.007 | zotarolimus 0.036 | idasanutlin -0.022 | alisertib 0.016 | [2] 0.045 | gefitinib 0.002 | [3] -0.012 | lapatinib -0.023 | pictilisib 0.062

More results:

FLAD1 (UniProt Q8NFF5)
inactive: [1] -0.03 | filanesib 0.057 | zotarolimus 0.023 | idasanutlin -0.063 | alisertib -0.013 | [2] 0.157 | gefitinib -0.009 | [3] 0.069 | lapatinib -0.046 | pictilisib 0.168

FBXO6 (UniProt Q9NRD1)
inactive: [1] -0.016 | filanesib 0.008 | zotarolimus 0.044 | idasanutlin -0.17 | alisertib -0.043 | [2] 0.022 | gefitinib 0.059 | [3] 0.038 | lapatinib 0.026 | pictilisib -0.091

FDXR isoform 7 (UniProt P22570)
inactive: [1] -0.005 | filanesib -0.122 | zotarolimus 0.021 | idasanutlin -0.179 | alisertib -0.019 | [2] 0.06 | gefitinib 0.048 | [3] 0.074 | lapatinib -0.057 | pictilisib 0.201

FGF13 isoform 3 (UniProt Q92913)
inactive: [1] -0.041 | filanesib -0.011 | zotarolimus 0.046 | idasanutlin 0.006 | alisertib 0.203 | [2] 0.014 | gefitinib 0.003 | [3] 0.064 | lapatinib 0.066 | pictilisib -0.056

FH (UniProt P07954)
inactive: [1] 0.002 | filanesib -0.141 | zotarolimus 0.013 | idasanutlin -0.047 | alisertib -0.042 | [2] 0.02 | gefitinib 0 | [3] 0.031 | lapatinib -0.02 | pictilisib 0.01

FERMT3 (UniProt Q86UX7)
inactive: [1] 0.046 | filanesib -0.037 | zotarolimus 0.033 | idasanutlin -0.068 | alisertib -0.104 | [2] 0 | gefitinib -0.007 | [3] 0.001 | lapatinib -0.006 | pictilisib 0.009

FKBP8 isoform 2 (UniProt Q14318)
inactive: [1] 0.054 | filanesib 0.146 | zotarolimus 0.109 | idasanutlin 0.186 | alisertib -0.075 | [2] -0.02 | gefitinib -0.018 | [3] -0.231 | lapatinib 0.171 | pictilisib -0.167

FAM210A (UniProt Q96ND0)
inactive: [1] 0.072 | filanesib -0.062 | zotarolimus -0.023 | idasanutlin -0.026 | alisertib 0 | [2] 0.055 | gefitinib -0.012 | [3] 0.041 | lapatinib -0.04 | pictilisib 0.068

FMC1 (UniProt Q96HJ9)
inactive: [1] 0.068 | filanesib -0.037 | zotarolimus -0.101 | idasanutlin -0.091 | alisertib -0.042 | [2] -0.008 | gefitinib 0.06 | [3] 0.023 | lapatinib -0.018 | pictilisib 0.024

FAM98A (UniProt Q8NCA5)
inactive: [1] -0.055 | filanesib 0.409 | zotarolimus 0.002 | idasanutlin 0.06 | alisertib -0.143 | [2] 0.039 | gefitinib -0.055 | [3] -0.251 | lapatinib 0.072 | pictilisib -0.009

FAM76B (UniProt Q5HYJ3)
inactive: [1] 0.183 | filanesib 0.159 | zotarolimus -0.014 | idasanutlin -0.186 | alisertib -0.031 | [2] 0.027 | gefitinib 0.117 | [3] 0.16 | lapatinib 0.066 | pictilisib -0.141

FCHO2 (UniProt Q0JRZ9)
inactive: [1] -0.082 | filanesib 0.043 | zotarolimus 0.034 | idasanutlin -0.002 | alisertib -0.075 | [2] 0.036 | gefitinib 0.106 | [3] 0.114 | lapatinib 0 | pictilisib -0.034

FANCI (UniProt Q9NVI1)
inactive: [1] 0.004 | filanesib -0.189 | zotarolimus -0.01 | idasanutlin -0.014 | alisertib -0.015 | [2] -0.113 | gefitinib -0.034 | [3] 0.033 | lapatinib 0.001 | pictilisib 0

FASN (UniProt P49327)
inactive: [1] 0.068 | filanesib -0.094 | zotarolimus 0.033 | idasanutlin -0.082 | alisertib -0.066 | [2] 0.01 | gefitinib -0.014 | [3] 0.005 | lapatinib 0.017 | pictilisib 0.018

FANCB (UniProt Q8NB91)
inactive: [1] -0.03 | filanesib -0.02 | zotarolimus -0.038 | idasanutlin -0.012 | alisertib 0.119 | [2] -0.017 | gefitinib 0.03 | [3] 0.035 | lapatinib 0.06 | pictilisib -0.078

FNBP4 isoform 2 (UniProt Q8N3X1)
inactive: [1] -0.026 | filanesib -0.01 | zotarolimus -0.032 | idasanutlin 0 | alisertib -0.097 | [2] -0.029 | gefitinib 0.015 | [3] 0.022 | lapatinib 0.02 | pictilisib -0.015

FHL2 (UniProt Q14192)
inactive: [1] 0.032 | filanesib 0.019 | zotarolimus -0.058 | idasanutlin 0.033 | alisertib -0.136 | [2] 0.036 | gefitinib -0.009 | [3] 0.005 | lapatinib -0.007 | pictilisib -0.039

FAM219A (UniProt Q8IW50)
inactive: [1] -0.033 | filanesib 0.014 | zotarolimus -0.033 | idasanutlin -0.087 | alisertib 0.104 | [2] 0.064 | gefitinib 0.25 | [3] -0.057 | lapatinib -0.029
